Measurements from patent publication US9944666B2, “Compounds that are S1P modulating agents and/or ATX modulating agents” (BIOGEN MA INC., priority 2012, dated 2018).
Some entries share one result that the patent states for a list of compounds. For at least one compound, name, drawing or mass did not settle the structure.

Molecular target: T1, Human ATX protein (Homo sapiens, UniProt Q13822)
T1 construct: made in house
Test: ATX biochemical FRET assay with FS-3 substrate
Details: FS-3 2 μM, ATX 1.0 μg/mL, room temperature 2 hours, fluorescence 485/538 nm
Source text: ATX (Autotaxin) is a 125 KDa glycoprotein with lysophospholipase D (LPLD) activity that generates the bioactive lipid lysophosphatidic acid (LPA) from lysophosphatidylcholine (LPC). The ATX biochemical assay utilizes a FRET (fluorescence resonance energy transfer) technology platform. The fluorescence signal of FRET substrate FS-3 is quenched due to intra-molecular FRET of a fluorophore to a non-fluorescing quencher (Ferguson, C. G., et al., Org Lett. 2006 May 11; 8(10): 2023-2026, which is incorporated by reference in its entirety). ATX catalyzes the hydrolysis of the substrate which separates the dabsyl quencher from the fluorescein reporter, which becomes fluorescent. The reaction is monitored by a SpectraMax M5 (Molecular Devices, Sunnyvale, Calif.) with at excitation wavelength 485 nm and emission wavelength […].
Fatty acid free-BSA (Sigma A8806): 10 mg/ml, in H2O, stored at 4° C.
2×ATX assay buffer: 100 mM Tris, 280 mM NaCl, 10 mM KCl, 2 mM CaCl2, 2 mM MgCl2, pH 7.4.
Human ATX protein: expressed and purified in house. Stored at −80° C.
Substrate FS-3 (Echelon, L-2000): 100 μg in 77.74 μL H2O (1 mM stock), stored at −20° C.
384-well flat bottom plates—Corning #3575.
Compound dilution—All compounds were provided at 10 mM in 100% DMSO. […]
Fluorescence was measured using SpectraMax M5 (excitation at 485 nm/emission at 538 nm, top read).

Question: With `CCC1CCC(Oc2ccc3cc([C@H](CC)N4C5CCCC4CC(C(=O)O)C5)ccc3c2C(F)(F)F)CC1` (stereo partly drawn) [Example 298, 9-((S)-1-(6-(((1S,4R)-4-ethylcyclohexyl)oxy)-5-(trifluoromethyl)naphthalen-2-yl)propyl)-9-azabicyclo[3.3.1]nonane-3-carboxylic acid] as the compound, how does the IC50 read?
Answer: ≤ 100 nM
